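Luminescence from an EWS-FLI1 target-promoter (NR0B1) reporter, set against a CMV-promoter reporter, two days after silencing single genes in TC32 Ewing sarcoma cells.
Each siRNA was applied at 20 nM.
A z-score of the log NR0B1-over-CMV signal, less the median of siRNAs with the same seed; more negative means a stronger specific loss of the NR0B1 reporter.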

The strongest results of the screen are mostly left out here.
Sequences are the guide (antisense) strand, without overhang.

strand | gene | seed-corrected z-score
UUCUGAAGCCUGAAGAGUC | ZFP91 | 0.2555
UCCAGUUCGAUUUCAACCG | RAB41 | 0.3489
UCUCAUCCCUCUUCAGGCC | EDAR | 0.208
UUGGGUUCUAAGUUUUCUC | SCTR | -0.4836
UUAUUGGUACUCGCUCUUC | MRPS22 | 0.09864
UAGGAUGUGAGGACAACGG | ARHGEF15 | -0.7227
UAAUCGAUGAUAUCUCUUG | ZRANB3 | -0.2498
UGUAUCGUGAGGGUCAUGC | LIMK1 | 0.5025
UCUGCAUCAGGGAUCAUGG | HARS | -0.08983
UUUCGAUUUUUGCAACUUC | ZNF804A | -0.09177
UUAUCUGUAAGUAGGUAUC | PTCD2 | -0.8622
AAGUGAAUAAGCACAUUCU | EYS | 0.02477
UCAGUUGCUACAAACGCGU | DHX58 | -0.7567
UACGCAAGUCGAAUAUUGG | XPO1 | -0.2432
AACGCAAAGACGUAAGUCC | HEG1 | -0.2142
UGAGGAUUCAUCUCGGUCU | RPS14 | 0.7182
UUAGAACUAAUCGCUCUUC | ERBB2IP | -0.3502
UCGGAUUUCAUCGAGCUCC | CALN1 | 1.736
UAAGCAUCUCUUUUCCUAU | EIF2S2P7 | 0.2393
UCUUCCACAAAGUAGGGCC | LOC728287 | -1.073
AAAGGGAAGAAUGUUGUCC | SCGB3A2 | 0.2973
AUAGCUUCAACCGCAGACC | NR1H4 | -1.289
UUCGUGGAAAGUAAACAAC | KIF2A | 1.283
ACAAGUACCAGUAUUGAGC | PUS10 | -1.04
UAAACGAUCUCCUUGAGCC | ARNT | 0.002853
AUCCUUGUGGGACGACUGC | RNF225 | -0.8611
UCAGCUGUCAGCAUCACCA | RCC1 | -0.5027
UGUACUUUCCUUGACAGGC | ALDOA | -0.1304
UCCCUUUUAGGGUCUACUC | SREK1IP1 | 0.2618
UCGUAGGUCAUAAAUAGCC | LOC440981 | -1.627
UCUCCGUCACUCACCACUC | LOC729305 | -0.1817
AGUGCGAAUAGUCAGAUCC | LRIG2 | -0.4094
UUACUGAGGUCUGAAGUGC | ZNF71 | -0.3839
UUCAUUAUCAACUGAUUCC | CFAP54 | -0.7643
UGCAGCAUCAAUCACGAGC | NGB | 0.7404
UCAACUGAGAUUUCAUGCC | GAPT | -0.2573
ACUCUGGUAAGUAACGGCC | UROD | -0.04928
UUCAGCAUCGUUGAUGCCC | RPS15AP34 | 0.3166
UAGCACAUCAGGGAAGUCC | LINGO1 | 0.01988
AUCAGCAUUACUAAUAGGC | CTDSPL | -1.14
UAUAGAUCACUCGAUUUUG | ESCO2 | 0.4152
AAUGGUAUGUAAUCUGUUG | CYP1B1-AS1 | 1.107
UGAUCUUGAAUCUGCAUCU | C20orf202 | 0.3264
AAAGAAUCCACUUGAAGCU | LINC00926 | -1.275
UUAAUGACCAGGGUAACCC | ZNHIT2 | -0.7909
UAUACGAUAGUUACCACGG | TRIM32 | 1.013
AUUGAUACCUAUCAUAAGC | CCDC15 | 0.2548
AUAGAUACUCAUGAAAGGC | GPR82 | 0.9044
UUCAGCACCAUGACUUGCC | TESK1 | 0.04225
UGAUUGAAAAUCUUACUCC | ABI3BP | -0.8379
AAAUGUCAAAGACACCAUC | LOC283585 | 0.1755
ACGAGAUACAUAUAGUUUC | VGLL1 | 0.1743
UUACCUUCAAUUGCUCUAG | HIBCH | 0.6678
UUAUCCCUAGCAGAUAUGC | MYO1E | -0.1525
UCUGAUAAGGGAAUAAACU | COPS8 | 0.8266
UAUAGAUAUAGAUACAGGG | OR4D1 | -0.2936
UAAAAUGAGCGCACUUUGC | NEUROG3 | 0.9359
UUCAUUAUUGCAAUCCGGG | EFCAB3 | -0.6525
AUACGUAUUUGUCAACUGG | MUC19 | -0.4199
UUCAUACCAGCUGACAUUC | TMC2 | -0.06145
AGUACAAUGAAUAAACGGC | CDC123 | 0.5126
AAUGUGAAACACCUUUUGC | FGD1 | -0.1204
UAAAUAACCAAUGGAAAUG | AK1 | 0.2012
UUCAUGAAACCGGCGAAUG | C2CD3 | 0.486
UAAACGGAACUGAGGAUUG | CAPN12 | -1.064
UCAACUGGUACAAUCUUUC | CMPK1 | 0.7352
UCAGCGUAUUCUCUGUUGC | CCDC150 | -0.5004
UUGCUGUCCACUGAACUGC | PPP1R26 | 0.3587
UAGCUAACGAUCUCGUCCC | VWF | -1.229
UUAAUAUCCACUUCAACCU | ELMSAN1 | 0.2208
UUUUCUAUGAAGUCAGUAU | RGS2 | 1.325
AAAGAGAACUAGGCCAGCA | HLA-K | -0.2215
UUCUCGUUCAAUUUCAUCC | ARGLU1 | -0.7745
AGUGUUAUAGUGCACGUGC | NSUN6 | 0.9724
UCAUAGACCACGAAAAGGG | LCMT2 | -0.662
UAAGGUUCCACAUCAUCGC | TBC1D9 | -1.166
UGAGCAUCCCAUAAGUACC | NEUROD4 | 0.2177
UUUGUAACAUCUCUUCACG | POLB | -0.7437
UUCGUCAGCAAGGAAGGCC | RFX8 | 1.974
UAGCAGUCGAACAAUGUUC | GCKR | -1.003
UCAUGUGCAACCCAGAUAC | HRH1 | 0.2573
AUCCUGAUCAAUUAGUGCC | PWP2 | 1.499

Source: PubChem BioAssay AID1159506 (NCATS, 2015).